Measurements from the supplement of paper PMC10338343.
± gives the standard deviation. This is one part of the list. Many entries were measured with a wide error.

System: EfPiwi piRISC loaded with L1MC piRNA (26 nt)
Experiment: pre-steady-state target cleavage rate (min^-1); guide: L1MC piRNA 5'p-UAACUAAAUACUAUGCAAGCUGUAGG; MIWI and MILI are mouse PIWI proteins and EfPiwi is from a freshwater sponge; tags in brackets are library labels; higher = faster piRNA-guided slicing of the target
How it was run: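 Cleave-'n-Seq: 1 nM active affinity-purified piRISC with one synthetic guide and 0.1 nM transcribed, DNA-blocked target RNA library were mixed, with or without 500 nM GTSF1 partner protein, in HEPES–potassium acetate buffer at 33 °C for 0–8 or 0–960 min. Uncleaved targets were sequenced and normalised to depth and to weakly complementary targets, three trials were pooled, and k3 was capped at 0.0001 min^-1. The pre-steady-state cleavage rate was fitted […].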

[1] = auxiliary factor: 500 nM Ephydatia muelleri Gtsf1
[2] = auxiliary factor: none (no Gtsf1)

Sequence	pre-steady-state target cleavage rate [1]	pre-steady-state target cleavage rate [2]
UCCUCCUACAGCUUGGAUAGUAUUUACUUA	0.00254 ± 0.0019	–
UCCUGGAUGUGCUGCAUAGUAUUUAGUUA	0.00571 ± 0.0034	–
UCCUGGAACAAGCUUGCAUAGUAUUUAGUUA	–	0.000651 ± 0.014
UCCUGGUACUGCUUGCAUACUAUUUAGUUA	0.00259 ± 0.0026	–
UCCUGGAUGUCGAACGAUUGUAUUUAGUUA	0.000117 ± 0.045	–
UCCUGGAUGAGCUUCAUAGUAUUUAGUUA	0.00394 ± 0.0033	–
UCCUCCAUCAGCUUGCAUAGUAUUUAGUAA	0.00678 ± 0.003	–
UCCUGGAACAGCUUGGAUUGUAUUUAGUUA	0.00093 ± 0.006	–
UCCUGGUACAGCUCGCAUAGUAUUUAGUUA	0.00967 ± 0.0034	–
UCCUGGAUGUCGAACGAUAGUAUUUAGUAA [g3:g14:cont:t1A]	0.000334 ± 0.017	–
UCCUGCUACAGCUUGCUUACUAUUUAGUUA	0.0113 ± 0.005	–
UCCUGGUUCAGCUUGCAUAGUAUUAAGUUA	0.00579 ± 0.0021	–
UCCUGGAACACUUGCAUAGUAUUUAGUUA	0.0107 ± 0.0034	–
UCCUGGAUGUCGAACGUAUCUAUUCAGUUA	–	< 0.0001
UCCUCCUACAGGAUGCAUAGUAUUUAGUAA	0.0119 ± 0.0048	–
UCCUCCUACAGUCUUGCAUAGUAUUUAGUUA	0.0171 ± 0.006	–
UCCUGGUACAGCUUGCAAAGUAUUUACUUA	0.0016 ± 0.004	–
UCCUGGAACUGCUUGCAUAGUAUAUAGUUA	–	0.00328 ± 0.0051
UCCUGGUACAGCUUGCAUAGUAUUUAGUUG [g2:g24:cont:t1G]	0.0182 ± 0.0065	–
UCCUCCUACAGCUUGGAUAGUUUUUAGUUA	0.0265 ± 0.007	–
UCCUCCUACAGCUUGCAUAGUAUUUAGUUU [g2:g26:cont:t1U]	0.265 ± 0.062	–
UCCUCGUACAGCUUGCAUAGUAUUUUGUUA	0.007 ± 0.0031	–

Sequence	pre-steady-state target cleavage rate [1]	pre-steady-state target cleavage rate [2]
UCCUGGAUGUCGAACGAUAGUAUAUAGUAA	–	0.00017 ± 0.032
UCCUGCUACUGCUUGCAAAGUAUUUAGUUA	0.00588 ± 0.0023	–
UCCUGCUACAGCUUCCAAAGUAUUUAGUUA	0.00321 ± 0.0019	–
UCCUGGAACAGCUAGCAUAGUAUUUACUUA	0.00241 ± 0.0026	–
UCCUGGAUGAGGUUGCAUAGUAUUUAGUAA	0.00223 ± 0.004	–
UCCUGGAUCACCUUGCAUUGUAUUUAGUUA	0.00151 ± 0.0045	–
UCCUCCUACAGCUUGCUUAGUAUUUAGUAA	0.00594 ± 0.0027	–
UCCUGGAUCAGCUUGAAUAGUAUUUAGUUA	0.0605 ± 0.015	–
UCCUGGAUGUCGAUCCAUAGUAUAUAGUUA	0.000616 ± 0.0091	–
UCCUGGAUGAGCUUGCCUAGUAUUUAGUUA	0.00623 ± 0.0037	–
UCCUGGUACUGCUUGCAUAGUAUUUAGUUA	0.0105 ± 0.0034	–
UCCUGGAACAGCUUGGUUAGUAUUUAGUAA	0.000953 ± 0.0057	–
UCCUCCUUCAGCUUGCAUUGUAUUUAGUUA	0.0307 ± 0.0077	–
UCCUGGAACAGCAUGCAUAGUAAUUAGUUA	0.0139 ± 0.0048	–
UCCUGGAUGUCGAUGCAAUCUAUUUAGUUA	0.000263 ± 0.0088	–
UCCUGGAUCAGCUUGGAUAGUAUUUUGUUA	0.00346 ± 0.0027	–
UCCUGGAUGUCGAACGUAAGUAUUAUAGUUA	0.000133 ± 0.043	–
UCCUGGAUGUCGAACGUAUGUAUUUUGUUA	< 0.0001	–
UCCUGGUAGAGCUUGCAAAGUAUUUAGUUA	0.0322 ± 0.0099	–
UCCUCCUAGAGCUUGCUUAGUAUUUAGUUA	0.0217 ± 0.0064	–
UCCUGGUACAGGAUGCAUAGUAUUUAGUUA	0.00598 ± 0.003	–
UCCUGCUACAGGAUGCAUAGUAUUUAGUUA	0.0191 ± 0.0043	–

A few values from above:
UCCUCCUACAGCUUGCUUAGUAUUUAGUAA – pre-steady-state target cleavage rate [1]: 0.00594 ± 0.0027
UCCUGGAUGUCGAACGUAUGUAUUUUGUUA – pre-steady-state target cleavage rate [1]: < 0.0001

Continued.

Sequence	pre-steady-state target cleavage rate [1]	pre-steady-state target cleavage rate [2]
UCCUGGAUGUCGUUGGUUAGUAUUUAGUUA	< 0.0001	–
UCCUGGAUGUCGAACGUAUGUAUUUAGAAA	0.000136 ± 0.041	–
UCCUGGAUCUCCUUGCAUAGUAUUUAGUAA	0.00383 ± 0.0026	–
UCCUGGAUGUCCCUGCAUAGUAUUUAGUUA	0.00326 ± 0.0026	–
UCCUGGAUGUCGAACGACAGUAUUUAGUUA	–	0.000245 ± 0.018
UCCUGGAUUAGCUUGCAUAGUAUUUAGUUA	0.0447 ± 0.011	–
UCCUGCUAGUGCUUGCAUAGUAUUUAGUUA	0.00363 ± 0.0014	–
UCCUGGAUGUCGAACGUUAGUAUUUAGUAUA	0.000133 ± 0.024	–
UCCUGGAUCAGGUUGCAUAGUAUUAAGUUA	–	0.000665 ± 0.015
UCCUGGAUCAGCUAGCAUAGUAUUUAGUUA	0.0313 ± 0.009	–
UCCUGGAACAGCUUGCAUUGUUUUUAGUUA	0.000813 ± 0.0028	–
UCCUGGAUGUGCUUGCUUAGUAUUUAGUUA	0.00274 ± 0.0029	–
UCCUGGAUGUCGAACGUUAGUAUUUAGUGUA	0.000525 ± 0.014	–
UCCUGCUACAGGUUGCAUAGUAUAUAGUUA	0.005 ± 0.0032	–
UCCUGGAUCUGCUAGCAUAGUAUUUAGUUA	0.0121 ± 0.0038	–
UCCUCCAACAGCUAGCAUAGUAUUUAGUUA	–	0.000574 ± 0.0083
UCCUGGAUGUCCUUGCAUACUAUUUAGUUA	–	0.00067 ± 0.0084
UCCUGCUACAGCUUGCAUAGUAUUAUAGUUA	0.0103 ± 0.0037	–
UCCUGGAACACCUUGCAUUGUAUUUAGUUA	0.00411 ± 0.0026	–
UCCUGGAUCAGCUUGCAUAGUAAAAUCAAA	0.00118 ± 0.0041	–
UCCUGGAUGUCGAUGCAUACUAUUUAGUAA	0.00114 ± 0.006	–
